{"source": "PubChem BioAssay AID540276", "about": "(National Center for Advancing Translational Sciences (NCATS), 2011)", "note": "In all, about 300,000 compounds went through this assay and about 5,400 (1.8%) were called active. Inconclusive means that the source gave no clear call. Such entries were picked first, then a sample of the others. Calls come from the whole dose curve; tested in HEK293 cells. Potencies beside an inconclusive call are fits to weak or partial responses and may not hold up. Potency is the fitted concentration of half-maximal effect.", "data": [{"assay": "qHTS for inhibitors of binding or entry into cells for Marburg Virus", "settings": "Marburg virus pseudotyped entry inhibition, cell reporter; series mostly up to 37.8 µM", "values": [{"smiles": "COc1ccc(OC)c(/C=N/NC(=O)CCN2CCN(C(c3ccccc3)c3ccccc3)CC2)c1", "Potency": "active: 10 µM"}, {"smiles": "O=C(NCc1ccncc1)Nc1ccc(Cl)cc1Cl", "Potency": "inconclusive: 14.1 µM [activator, single point]"}, {"smiles": "CN(C)S(=O)(=O)c1ccc(C(=O)NCc2nc3ccccc3s2)cc1", "Potency": "inactive"}, {"smiles": "COc1ccc(Nc2nc(C)cc(C)c2C(N)=O)cc1", "Potency": "inconclusive: 3.98 µM [activator, single point]"}, {"smiles": "CC1=C(C(=O)Nc2ccccc2C(F)(F)F)C(c2ccc(C)s2)NC(=S)N1", "note": "(stereo not given)", "Potency": "inconclusive: 11.2 µM [inhibitor, partial curve, poor fit]"}, {"smiles": "Cc1ccccc1OCC(=O)Nc1ccc(S(=O)(=O)N2CCCC2)cc1", "Potency": "inactive"}, {"smiles": "O=C(Nc1cccc(Cl)c1)OC1CCCCc2cccnc21", "note": "(stereo not given)", "Potency": "inconclusive: 0.631 µM [inhibitor, full curve, poor fit]"}, {"smiles": "O=C(CSc1nnc(-c2ccc(O)cc2)o1)Nc1cccc(O)c1", "Potency": "inconclusive: 7.08 µM [inhibitor, partial curve, poor fit]"}, {"smiles": "CCCC(=O)OCCNc1cc(SCc2ccco2)c2nonc2c1[N+](=O)[O-]", "Potency": "inconclusive: 35.5 µM [inhibitor, single point]"}, {"smiles": "Cc1ccc2nc(N/C(=N/S(=O)(=O)c3ccc(F)cc3F)c3ccccc3)sc2c1", "Potency": "inconclusive: 22.4 µM [activator, single point]"}, {"smiles": "COc1ccc(S(=O)(=O)N(CC(=O)O)c2ccccn2)cc1", "Potency": "inconclusive: 0.708 µM [inhibitor, single point]"}, {"smiles": "O=C(Nc1ccccc1)c1ccc2c(c1)OCO2", "Potency": "inconclusive: 1.12 µM [activator, full curve]"}, {"smiles": "O=C(CCS(=O)(=O)c1cccc2nonc12)NC1CCCCCC1", "Potency": "inactive"}, {"smiles": "CCc1ccc(NC(=O)CSc2nc3c(c(=O)[nH]2)CN(Cc2ccc(C)cc2)CC3)cc1", "Potency": "inactive"}, {"smiles": "O=C(COc1ccc(C(=O)c2ccc(F)cc2)cc1)NCc1ccc(F)cc1", "Potency": "inactive"}, {"smiles": "O=C(CCNS(=O)(=O)c1ccc(Br)cc1)N1CCN(c2ccccc2O)CC1", "Potency": "inactive"}, {"smiles": "COc1ccccc1/C=C/C=N/n1c(-c2ccccc2)n[nH]c1=S", "Potency": "inconclusive: 8.91 µM [inhibitor, partial curve, poor fit]"}, {"smiles": "O=C(NNC(=S)Nc1ccccc1Cl)c1ccccc1Cl", "Potency": "inconclusive: 0.282 µM [activator, full curve, poor fit]"}, {"smiles": "O=C(c1cccs1)c1coc2ccc(O)c(CN3CCOCC3)c12", "Potency": "inconclusive: 29.1 µM [inhibitor, single point]"}, {"smiles": "Cc1ccccc1CCNC(=O)CCn1ccc2cc(S(=O)(=O)N3CCCC3)ccc21", "Potency": "inconclusive: 1.78 µM [inhibitor, single point]"}, {"smiles": "COCCNC(=O)CSc1nc2c(n1-c1ccccc1)CCCC2", "Potency": "inconclusive: 6.31 µM [activator, single point]"}, {"smiles": "O=C(NNC(=O)c1ccc(Cl)cc1Cl)Nc1ccccc1", "Potency": "inactive"}, {"smiles": "COC(=O)c1ccc(CSc2nc(C(F)F)cc(C)c2C#N)o1", "Potency": "inactive"}, {"smiles": "O=[N+]([O-])c1cccc(/C=C/C=N/Nc2nc(N3CCCCC3)nc(N3CCCCC3)n2)c1", "Potency": "inactive"}, {"smiles": "COCC(=O)Nc1ccc(C(C)C)cc1", "Potency": "inactive"}, {"smiles": "Cc1sc2c(c1C)c(=O)nc1scc(CC(=O)O)n12", "Potency": "inconclusive: 0.073 µM [inhibitor, full curve, poor fit]"}, {"smiles": "CCOC(=O)Cn1nc(C)c2c1CCCC2=O", "Potency": "inconclusive: 0.126 µM [activator, full curve, poor fit]"}, {"smiles": "COc1nnc(-c2ccc(N3CCCCC3)c(NC(=O)c3ccccc3Cl)c2)c2ccccc12", "Potency": "inconclusive: 20 µM [inhibitor, single point]"}, {"smiles": "O=C(Nc1sc2c(c1C(=O)NCc1ccccc1)CCCC2)c1cc(=O)c2ccccc2o1", "Potency": "inactive"}, {"smiles": "CN(C)c1ccc(C=NN2CCCCCC2)cc1", "Potency": "inconclusive: 3.55 µM [activator, partial curve, poor fit]"}, {"smiles": "CC(=O)N1CCN(c2ccccc2NC(=O)COc2cc(C)cc(C)c2)CC1", "Potency": "inactive"}, {"smiles": "CC(=O)Nc1ccc(NC(=O)COC(=O)c2cc([N+](=O)[O-])ccc2N2CCOCC2)cc1", "Potency": "inactive"}, {"smiles": "CCOc1ccc(/C=N/Nc2ccc(C(F)(F)F)cc2[N+](=O)[O-])cc1O", "Potency": "inconclusive: 6.51 µM [inhibitor, single point]"}, {"smiles": "CCOC(=O)c1nc(N)c(=O)n(-c2ccc(C)cc2)n1", "Potency": "inactive"}, {"smiles": "Cc1ccc(C)c(S(=O)(=O)N2CCN(C(=O)c3cc(S(=O)(=O)NCc4ccccc4)ccc3C)CC2)c1", "Potency": "inconclusive: 35.5 µM [inhibitor, single point]"}, {"smiles": "COCc1cc(C)nc2c1C(=O)NC(c1ccc(Br)cc1)N2Cc1ccccc1", "note": "(stereo not given)", "Potency": "inconclusive: 1.58 µM [inhibitor, partial curve, poor fit]"}, {"smiles": "COc1ccc(CCNc2cc(C)nc3c(-c4ccc(Cl)cc4)c(C)nn23)cc1OC", "Potency": "inconclusive: 15.8 µM [inhibitor, partial curve, poor fit]"}, {"smiles": "Cc1cc(/C=C(/C#N)C(=O)O)c(C)n1CCC(C)C", "Potency": "inactive"}, {"smiles": "CCOC(=O)N1CCC(NS(=O)(=O)c2ccc(NC(C)=O)c(Cl)c2)CC1", "Potency": "inconclusive: 17.8 µM [inhibitor, single point]"}, {"smiles": "COc1cccc(N2CCN(C(=O)Cn3nc(C)n4c(cc5c(OC)cccc54)c3=O)CC2)c1", "Potency": "inconclusive: 14.1 µM [activator, partial curve, poor fit]"}, {"smiles": "COc1ccc(/C=C2\\CCCC3C2=NN(C(=O)c2scnc2C)C3c2ccc(OC)cc2)cc1", "note": "(stereo not given)", "Potency": "inconclusive: 23.1 µM [inhibitor, single point]"}, {"smiles": "Cc1[nH]c(=O)[nH]c(=O)c1S(=O)(=O)Nc1cccc([N+](=O)[O-])c1C", "Potency": "inconclusive: 12.6 µM [activator, single point]"}, {"smiles": "COC(=O)C1=C(C)N(Cc2ccc(C)cc2)C(=O)C1", "Potency": "inconclusive: 1.16 µM [inhibitor, single point]"}, {"smiles": "O=C(NNc1ccccc1[N+](=O)[O-])Nc1ccc(F)cc1", "Potency": "inactive"}, {"smiles": "COC(=O)c1c(NC(=O)CCC(=O)O)sc2c1CCCCC2", "Potency": "inconclusive: 0.631 µM [activator, partial curve, poor fit]"}]}]}
